Experimental data reported in PubChem BioAssay AID493205 (National Center for Advancing Translational Sciences (NCATS), 2011).
The inconclusive results got no clear call from the source; some entries with a clear call stand among them for comparison. Potencies beside an inconclusive call are fits to weak or partial responses and may not hold up. Active and inactive are the calls of the source. Calls follow the shape of the dose curve; as a rule, active = well fitted inhibition curve with a large enough effect; inconclusive = small, poorly fitted or top-dose-only effect, or effect the other way; inactive = no such curve, though single readings can be large or run the other way. *1 amine or outer side, *2 acyl side, *3 side chain or, on linkers, in order; H or OH if unused. Where a SMILES comes first, the peptide text is derived from it. Bridges are numbered along the chain shown (N, C = ends). [ ]: non-standard residue; d: D form. The star is where a group is joined. ξ: configuration not given here. ΔAla(Z-3-ureido) = NC(=O)N/C=C(\N)C(=O)O; X1 = NC1=NC(O)CC(C(N[*:1])C(=O)[*:2])N1; ξβ3hOrn = NCCCC(N)CC(=O)*; Dap = NC[CH](N)C(=O)O

Chains of the proteins cited; added tags and fusions are not shown. Lines headed by an entry give the natural chain unless they say otherwise; changes in a name come on top.
UniProt Q9NR56: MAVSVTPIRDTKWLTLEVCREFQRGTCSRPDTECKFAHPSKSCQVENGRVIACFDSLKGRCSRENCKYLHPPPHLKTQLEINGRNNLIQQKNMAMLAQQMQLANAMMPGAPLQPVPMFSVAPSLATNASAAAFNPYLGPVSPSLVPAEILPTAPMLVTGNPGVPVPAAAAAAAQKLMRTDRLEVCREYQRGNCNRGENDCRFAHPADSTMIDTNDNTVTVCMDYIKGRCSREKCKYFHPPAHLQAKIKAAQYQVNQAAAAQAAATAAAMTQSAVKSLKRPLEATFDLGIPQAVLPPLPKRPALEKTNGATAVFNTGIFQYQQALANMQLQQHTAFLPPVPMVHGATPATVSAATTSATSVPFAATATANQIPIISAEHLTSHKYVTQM

Molecular target: Muscleblind-like protein 1 (Homo sapiens) (UniProt Q9NR56)
Assay: qHTS Assay for Inhibitors of MBNL1-poly(CUG) RNA binding: Initial hit validation in AlphaScreen assay for MBNL1-(CUG)12 binding
Settings: AlphaScreen MBNL1-His / biotin-(CUG)12 binding; series mostly up to 57.7 µM
Procedure, shortened: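 His-tagged MBNL1 and biotin-(CUG)12 RNA, each dispensed at 20 nM in HEPES/KCl buffer with DTT and BSA, were exposed to compound at up to 58 uM final. Ni-acceptor beads were added for 30 min, then streptavidin donor beads for 60 min, at room temperature. AlphaScreen signal was normalized to buffer-only and complex controls, and AC50 came from Hill fits.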

Row | Compound | Potency
1 | CCCCN1C(=O)NC2NC(=O)NC21 (configuration not stated) | active: 1.16 µM
2 | COc1ccc(Cc2n[nH]c(=S)n2NC(=O)Nc2ccc(C)cc2)cc1 | inactive
3 | CC1(C)CCC2=C(O1)c1ccccc1C(=O)C2=O | active: 20 µM
4 | COCCNC(=O)CCC1CCN(C/C=C/c2ccccc2OC)CC1 | inconclusive: 25.9 µM [inhibitor, partial curve, poor fit]
5 | COC(=O)c1ccc(=O)c2nc3/c(=C/O)c(O)cc(=O)c3[nH]c12 | active: 0.291 µM
6 | O=C1NC(=O)C2C1C(c1ccccc1)N1C3C(=O)NC(=O)C3C(c3ccccc3)N21 (configuration not stated) | inconclusive: 130 µM [inhibitor, partial curve, poor fit]
7 | O=C(NC1CCCCC1)c1ccccc1NC(=O)C1CC(=O)N(c2ccc(Cl)cc2)C1 (configuration not stated) | inconclusive: 0.0146 µM [inhibitor, partial curve, poor fit]
8 | O=C(Nc1cccnc1Cl)c1cc(-c2cccc(O)c2)on1 | inconclusive: 13 µM [inhibitor, partial curve]
9 | COc1ccc(-c2nc(SCC(=O)Nc3cc(C)on3)n[nH]2)cc1 | inactive
10 | OC(COc1ccccc1CNCc1cccnc1)CN1CCc2ccccc2C1 (configuration not stated) | inconclusive: 411 µM [inhibitor, single point]
11 | Cc1ccc(S(=O)(=O)Oc2ccccc2/C=N/N=C(N)N)cc1 | inactive
12 | Cc1oc2nc(SCCCC(=O)NCCO)nc(N)c2c1C | inconclusive: 25.9 µM [inhibitor, partial curve]
13 | COCCNC(=O)C(c1cccs1)N(C(=O)Cn1nnc2ccccc21)c1ccc(OC)cc1 (configuration not stated) | inactive
14 | CN(CC(=O)Nc1sccc1C#N)C1CCCCC1 | inactive
15 | O=C(Nc1ccc(F)c(Cl)c1)Nn1cnnc1 | inactive
16 | NCCCC(N)CC(=O)NC1CNC(=O)C(C2CC(O)N=C(N)N2)NC(=O)/C(=C/NC(N)=O)NC(=O)C(CO)NC(=O)C(CO)NC1=O (stereo not drawn) (ξβ3hOrn-[Dap]SS[ΔAla(Z-3-ureido)][X1]; lactam 1-C; configuration not given here) | inconclusive: 46.1 µM [inhibitor, partial curve, poor fit]
17 | O=C(OCC1OC(OC(=O)c2cc(O)c(O)c(OC(=O)c3cc(O)c(O)c(O)c3)c2)[C@@H](OC(=O)c2cc(O)c(O)c(OC(=O)c3cc(O)c(O)c(O)c3)c2)C(OC(=O)c2cc(O)c(O)c(OC(=O)c3cc(O)c(O)c(O)c3)c2)C1OC(=O)c1cc(O)c(O)c(OC(=O)c2cc(O)c(O)c(O)c2)c1)c1cc(O)c(O)c(OC(=O)c2cc(O)c(O)c(O)c2)c1 (some centres not stated) | active: 0.0291 µM

Rewritten as tab-separated lines: entries from further up
Row	Compound	Potency
10	OC(COc1ccccc1CNCc1cccnc1)CN1CCc2ccccc2C1 (configuration not stated)	inconclusive: 411 µM [inhibitor, single point]
13	COCCNC(=O)C(c1cccs1)N(C(=O)Cn1nnc2ccccc21)c1ccc(OC)cc1 (configuration not stated)	inactive
